Laboratory results published in patent US11723947B2, “Anti-senescence compounds and uses thereof” (Erasmus University Medical Center Rotterdam, priority 2015, dated 2023).
Not every detail of the peptide structures is certain; ends, links or a residue may be inferred. Square brackets hold non-standard residues; d marks the D form. Ends that are not written are not given here.

Assays:
[1] = tested on: Senescent and control IMR90
Experimental: The selectivity index (S.I.) for the EC50 values was determined after […] (GraphPad Prism) of the curves. […] Real-time cell density was measured using an xCELLigence detection system (ACEA Biosciences). Prior to the start of the measurement 50 μL DMEM 10% FCS was added to each well of an E-plate view 16 (Roche) to determine background signal. Non-senescent (2000 cells per well) and senescent (5000 cells/well) IMR90 fibroblasts were then plated in 150 μl medium. 16 hours later the E-plate was placed in the xCELLigence reader and the cell density was recorded every 30 minutes. […] Measurements continued for the indicated time-points. […] Experiment as in FIG. 2C, but with the indicated peptides. […] Cells were plated in 4-well Poly-L-Lysine coated glass bottom 35 mm dishes (D141410; Matsumi, Japan) and incubated with NucView488 Caspase-3 (4440; Essen Bioscience). […] 8h after addition the real-time imaging was initiated and every 30 min a grid of 3×3 pictures was imaged. The imaging continued for another 6 days and the images were concatenated using Zen imaging software. […] After 6 days cell viability was determined as in FIG. 2C). […] Experiment as in FIG. 2C, but according to the indicated treatment plan. Instead of one single dose, three doses were given (one day in between) of ⅓ that concentration each time. […] Left: Experiment as in FIG. 2C, but on cells pretreated once daily for two days with IL-1α Receptor Antagonist (RA), which blocks IL-1α/β signaling, recombinant IL-6 and recombinant IL-1α/β. […] Right: Similar experiment as in the left panel, except viability measured one day earlier. […] In senescent cells p53 signaling causes upregulation of the cell-cycle arrest and pro-survival protein p21Cip1. […] Experiment as in FIG. 2K. […] Experiment as in FIG. 2c, but with control and senescent IMR90 stable transduced with shRNAs against p53 or a control shRNA (shGFP).
A) Control IMR90 and IMR90 induced to senesce through 10Gy IR were plated in triplicate for each condition in a 96-well plate. […] After 6 days viability was determined through AqeousOne celltiter assay (Promega) according to the manufacturer's instructions.
Non-senescent (=“normal”, proliferating) IMR90 cells (ATCC #CCL-186, a diploid primary human fibroblast adherent cell line derived from fetal lung tissue) were irradiated with 10Gy Gamma-IR (IR=irradiation). After 7 days these cells are senescent and can be used for experiments comparing them to their non-irradiated (=non-senescent) counterparts. Senescent and non-senescent IMR90 fibroblasts were plated for longitudinal cell density measurement using the xCELLigence system (ACEA Biosciences, Inc., San Diego, Calif.).
(§1) 5000 senescent (obtained as described above) and 2000 non-senescent IMR90 fibroblasts were plated in 96-well plates incubated with concentrations of NQDI between 0-20 μM and after 6 days cell viability was determined by AqueousOne CellTiter (MTT) assay according to the manufacturer's instructions.
as §1, with “R406, ranging from 16, 32, 64 to 128 nM” for “NQDI between 0-20 μM”
Normal human IMR90 fibroblasts were exposed to 10 Gy Ionizing Radiation or treated 3× (bidaily) with 0.5 μM Doxorubicin. Seven days later they were processed for SA-β-Gal staining to visualize senescent cells. […] DAPI was used as a counterstain to visualize nuclei. […] After 6 days the cell viability was determined using an AqueousOne Celltiter (MTT) assay according to the manufacturer's instructions.

BJ = test: Cell viability of senescent and control BJ cells; format: cell-based, human; conditions: 12.5 μM
p21Cip1 = p21Cip1 expression in senescent IMR90; format: cell-based, human; conditions: 25 μM with QVD-OPH
[2] = tested on: p16^INK4A-positive senescent cells; test: p16::3MR RLUC bioluminescence in Xpd^TTD/TTD mice; format: in vivo, mouse; conditions: 26 w Xpd^TTD/TTD-P16::3MR mice, 4 consecutive days 10 mg/kg i.v., 14 d after first injection
[3] = tested on: fresh patient-derived melanomas; test: Patient-derived 3D melanoma organoid cultures (melanoids): viability and TUNEL; format: cell-based, human; conditions: combination with Vemurafenib
MCF7 cells = test: Apoptosis by Cytochrome C release in MCF7 (parental and FAC survivors); format: cell-based; conditions: FAC survivors vs parental MCF7, 5 days
cancer cells = test: MTT viability of cancer cell lines, peptide as single entity; format: cell-based; conditions: without chemotherapy, 6 days

[dL][dT][dL][dR][dK][dE][dP][dA][dS][dE][dI][dA][dQ][dS][dI][dL][dE][dA][dY][dS][dQ][dN]G[dW][dA][dN][dR][dR][dS]GG[dK][dR][dP][dP][dP][dR][dR][dR][dQ][dR][dR][dK][dK][dR]G [FOXO4 DRI]
viability of senescent vs control cells ([1]; 12.5 μM, IMR90): selectively reduces viability of senescent, but not control | killing of cells expressing high levels of SASP proteins ([1]; 12.5 μM, senescent IMR90): selectively kills cells expressing high levels of SASP proteins | senescent cell viability, mechanism (with pan-caspase inhibitors) ([1]; 25 μM FOXO4 DRI, senescent IMR90, 6 days): reduces senescent cell viability through cell-intrinsic apoptosis | senescent cell viability, p53 dependence ([1]; 25 μM, IMR90 with shRNAs against p53 or shGFP): reduces senescent cell viability in a p53-dependent manner | elimination of senescent cells, comparison of peptides ([1]; 6.25, 12.5 and 25 μM, senescent vs control IMR90): selectively eliminates senescent cells in a dose-dependent manner | viability of cells induced to senesce by IR or Doxorubicin ([1]; 10 Gy IR or 3× 0.5 μM Doxorubicin, 6 days): selectively targets viability of cells induced to senesce by radiotherapy (IR) or chemotherapy (Doxorubicin) | viability of Doxorubicin-induced senescent cells ([1]; IMR90 induced to senesce by Doxorubicin): selectively reduces viability of Doxorubicin-induced senescent cells in vitro | senescent cell viability ([1]; senescent (10Gy IR) vs control IMR90, increasing doses, 6 days): selectively reduces senescent cell viability | potential for clearing senescent cells compared with ABT-737 ([1]; single dose, 6 days, senescence by 10Gy IR): shows higher potential for clearing senescent cells | viability of senescent vs control cells (BJ): selectively reduces viability of senescent, but not control | expression of p21Cip1 (p21Cip1): reduces expression of the senescence-associated p53 target p21Cip1 | change in p16^INK4A-positive senescence (RLUC radiance) [2]: strongly reduces p16^INK4A-positive senescence in 26 w old Xpd^TTD/TTD mice | viability and apoptosis (TUNEL) of melanoids, with Vemurafenib [3]: potently synergizes with Vemurafenib in targeting fresh patient-derived melanomas | apoptosis (Cytochrome C release) (MCF7 cells): potently and selectively induces apoptosis in FAC-surviving MCF7 cells | killing of cancer cells as a single entity (cancer cells; listed as FOXO 4 DRI peptide): can kill cancer cells to some extent as a single entity | killing of cancer cells as a single entity (cancer cells; listed as FOXO4 DRI peptide): clearly able to kill cancer cells
